Laboratory results taken from patent US11833128B2, “Ketone carbonyl-containing hydrophobic antitumor drug and conjugate thereof as well as nano preparation containing conjugate, preparation method therefor, and application thereof” (Jiangsu Jibeier Pharmaceutical Co. Ltd., priority 2018, dated 2023).
Some results were stated once for a whole list of compounds, not compound by compound. For at least one compound, name, drawing or mass did not settle the structure.

System: Hela tumor
Experiment: Effects of the pH-responsive nano preparations on tumor in vivo (Hela tumor-bearing mice)
Details: 40 mg DTX/kg, tail vein, once every seven days x3
Method: Hela tumor-bearing mice were divided into four groups with five mice in each group. The first, second, and third groups were the treatment groups, in which tumor treatment was carried out by respectively injecting the drug via the tail vein of each Hela tumor-bearing mouse. […] The fourth group was the blank control group.
The mice in the first, second and third groups were treated by administering drugs once every seven days for a total of three injections. Each tumor-bearing mouse in each group was labeled, and the body weight and the tumor volume thereof throughout the treatment process were recorded. The tumor volume was calculated according to the following formula: V (mm^3)=½×length (mm)×width (mm)^2.
Moreover, the relative tumor inhibition rate was also calculated and analyzed.

Q: `CC(=O)OC12COC1CC(O)C1(C)C(=O)C(OC(=O)Nc3ccc(C(C)=O)cc3)C3=C(C)C(OC(=O)C(O)C(NC(=O)OC(C)(C)C)c4ccccc4)CC(O)(C(OC(=O)c4ccccc4)C21)C3(C)C` (stereo not shown) [DTX-AI] was tested. Which “relative tumor inhibition rate maintained after 21 days (after the administration was stopped)” value did it give?
A: ≥ 90%
